No constants are given. Whether binding was seen depends on the method and setting. Binding seen in cells or lysates may run through a third protein. These calls come from enrichment with a bait or labelling near it, and not all partners need be listed.
Molecular target: IRBIT (IP3R binding protein released with inositol 1,4,5-trisphosphate), endogenous (mouse (endogenous in B16-F10)) (UniProt Q80SW1)
Test: affinity purification with mass spectrometry; immunoprecipitation of endogenous IRBIT and L-IRBIT from B16-F10 cells (legend: B16-BL6) with anti-IRBIT and anti-L-IRBIT antibodies; SDS-PAGE, silver staining; bands analysed by LC-MS/MS

Protein sequences, listed by entry. Tags and fused reporters are not part of them.
UniProt Q80SW1: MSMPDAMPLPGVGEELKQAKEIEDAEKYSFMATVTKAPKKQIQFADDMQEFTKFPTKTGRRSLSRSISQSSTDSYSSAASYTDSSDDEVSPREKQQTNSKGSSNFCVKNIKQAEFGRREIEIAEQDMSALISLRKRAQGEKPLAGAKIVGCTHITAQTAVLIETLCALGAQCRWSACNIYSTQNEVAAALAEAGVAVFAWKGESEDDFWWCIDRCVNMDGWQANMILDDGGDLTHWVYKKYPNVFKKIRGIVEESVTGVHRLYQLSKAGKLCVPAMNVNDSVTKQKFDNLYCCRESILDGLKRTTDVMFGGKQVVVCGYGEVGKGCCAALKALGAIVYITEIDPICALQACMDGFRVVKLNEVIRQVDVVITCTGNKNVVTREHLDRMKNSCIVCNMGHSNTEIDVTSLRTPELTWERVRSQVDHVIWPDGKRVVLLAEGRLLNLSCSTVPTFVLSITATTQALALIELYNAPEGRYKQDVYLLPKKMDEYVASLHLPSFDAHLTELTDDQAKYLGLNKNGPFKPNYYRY

binding: binds
B1: Anion exchanger 2 (AE2), endogenous (protein, UniProt P13808 1-1237)
chain: MSSAPRRPASGADSLHTPEPESLSPGTPGFPEQEEDELRTLGVERFEEILQEAGSRGGEEPGRSYGEEDFEYHRQSSHHIHHPLSTHLPPDARRRKTPQGPGRKPRRRPGASPTGETPTIEEGEEDEEEASEAEGFRAPPQQPSPATTPSAVQFFLQEDEGAERKPERTSPSPPTQTPHQEAAPRASKGAQTGTLVEEMVAVASATAGGDDGGAAGRPLTKAQPGHRSYNLQERRRIGSMTGVEQALLPRVPTDESEAQTLATADLDLMKSHRFEDVPGVRRHLVRKNAKGSTQAAREGREPGPTPRARPRAPHKPHEVFVELNELLLDKNQEPQWRETARWIKFEEDVEEETERWGKPHVASLSFRSLLELRRTLAHGAVLLDLDQQTLPGVAHQVVEQMVISDQIKAEDRANVLRALLLKHSHPSDEKEFSFPRNISAGSLGSLLGHHHAQGTESDPHVTEPLIGGVPETRLEVDRERELPPPAPPAGITRSKSKHELKLLEKIPENAEATVVLVGCVEFLSRPTMAFVRLREAVELDAVLEVPVPVRFLFLLLGPSSANMDYHEIGRSISTLMSDKQFHEAAYLADERDDLLTAINAFLDCSVVLPPSEVQGEELLRSVAHFQRQMLKKREEQGRLLPPGAGLEPKSAQDKALLQMVEVAGAAEDDPLRRTGRPFGGLIRDVRRRYPHYLSDFRDALDPQCLAAVIFIYFAALSPAITFGGLLGEKTKDLIGVSELIMSTALQGVVFCLLGAQPLLVIGFSGPLLVFEEAFFSFCSSNELEYLVGRVWIGFWLVFLALLMVALEGSFLVRFVSRFTQEIFAFLISLIFIYETFYKLIKIFQEHPLHGCSGSNDSEAGSSSSSNMTWATTILVPDNSSASGQSGQEKPRGQPNTALLSLVLMAGTFFIAFFLRKFKNSRFFPGRIRRVIGDFGVPIAILIMVLVDYSIEDTYTQKLSVPSGFSVTAPDKRGWVINPLGEKTPFPVWMMVASLLPAVLVFILIFMETQITTLIISKKERMLQKGSGFHLDLLLIVAMGGICALFGLPWLAAATVRSVTHANALTVMSKAVAPGDKPKIQEVKEQRVTGLLVALLVGLSMVIGDLLRQIPLAVLFGIFLYMGVTSLNGIQFYERLHLLLMPPKHHPDVTYVKKVRTMRMHLFTALQLLCLALLWAVMSTAASLAFPFILILTVPLRMVVLTRIFTEREMKCLDANEAEPVFDECEGVDEYNEMPMPV
